Experimental data published in PMC4900541.
Results are given in words; binding and its absence hold for the method and conditions named. Binding seen in cells or lysates may run through a third protein. Some results given as binding are weak or reduced against the parent protein; the word gives no strength.

Sequences of proteins named here, by UniProt entry; tags and fusion partners are left off.
UniProt Q7Z2H8: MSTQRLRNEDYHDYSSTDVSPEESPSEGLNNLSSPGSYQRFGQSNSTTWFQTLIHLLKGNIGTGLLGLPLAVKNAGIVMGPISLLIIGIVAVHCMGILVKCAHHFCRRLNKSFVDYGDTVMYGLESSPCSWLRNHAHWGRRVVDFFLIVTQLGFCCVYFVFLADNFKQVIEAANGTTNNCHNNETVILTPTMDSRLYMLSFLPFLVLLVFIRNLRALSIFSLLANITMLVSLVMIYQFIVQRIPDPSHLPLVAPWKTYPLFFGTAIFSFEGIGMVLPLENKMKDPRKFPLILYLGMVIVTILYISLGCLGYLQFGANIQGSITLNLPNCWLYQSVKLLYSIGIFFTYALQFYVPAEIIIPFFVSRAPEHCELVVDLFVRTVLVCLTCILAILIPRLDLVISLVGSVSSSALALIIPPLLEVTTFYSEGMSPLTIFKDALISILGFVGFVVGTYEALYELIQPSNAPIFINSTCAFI

Molecular target: T1, FLCN (folliculin) (human (endogenous in HEK293)) (UniProt Q8NFG4)
T1 sequence: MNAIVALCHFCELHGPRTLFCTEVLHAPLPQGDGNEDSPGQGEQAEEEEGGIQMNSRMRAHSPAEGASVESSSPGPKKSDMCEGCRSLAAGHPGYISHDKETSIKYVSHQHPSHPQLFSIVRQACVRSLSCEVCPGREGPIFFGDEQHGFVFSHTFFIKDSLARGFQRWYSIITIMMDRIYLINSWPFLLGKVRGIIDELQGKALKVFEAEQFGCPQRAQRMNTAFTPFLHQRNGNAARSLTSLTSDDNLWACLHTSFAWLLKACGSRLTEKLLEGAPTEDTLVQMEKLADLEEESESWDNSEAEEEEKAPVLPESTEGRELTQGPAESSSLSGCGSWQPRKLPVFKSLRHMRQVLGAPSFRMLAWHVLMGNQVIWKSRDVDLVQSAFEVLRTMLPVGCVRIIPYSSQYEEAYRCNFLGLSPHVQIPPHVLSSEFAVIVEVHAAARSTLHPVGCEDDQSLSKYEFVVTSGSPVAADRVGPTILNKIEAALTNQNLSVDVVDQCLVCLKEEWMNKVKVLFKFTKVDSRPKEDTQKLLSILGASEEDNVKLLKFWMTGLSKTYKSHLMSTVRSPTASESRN
Experiment: co-IP; lysate of HEK293 cells stably expressing EGFP-PAT1 (NP40 lysis buffer: 0.5% NP-40, 25 mM Tris, 200 mM NaCl, 200 mM KCl, pH 7.4); immunoprecipitated with anti-GFP polyclonal antibody or anti-FLCN, Protein A/G PLUS-Agarose, 4°C, western blot; both directions; also with or without amino acids (S3 Fig), interaction said not to be affected

- binding: binds
Substance: EGFP-PAT1 fusion protein (Proton-Assisted Amino Acid Transporter 1) (from UniProt Q7Z2H8 1-476)
